Measured values taken from article PMC6939424.
Results are given in words; binding and its absence hold for the method and conditions named. Binding seen in cells or lysates may run through a third protein. Some entries that bind do so weakly or less than the wild type.

Molecular target: T1, High mobility group box 1 (rat (endogenous in BMSCs)), P63159
T1 chain: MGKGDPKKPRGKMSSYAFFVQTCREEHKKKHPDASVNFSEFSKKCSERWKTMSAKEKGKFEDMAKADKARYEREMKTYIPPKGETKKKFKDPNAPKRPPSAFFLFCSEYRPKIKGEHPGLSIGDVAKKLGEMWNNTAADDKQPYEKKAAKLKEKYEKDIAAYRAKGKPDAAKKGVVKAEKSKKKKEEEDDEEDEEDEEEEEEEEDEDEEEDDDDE
Test: co-IP; lysates of rat BMSCs kept in NG (5.5 mM glucose), HG (35 mM glucose) or HG+GL (35 mM glucose + 10 uM glycyrrhizin) medium, incubation for 3 days; precipitated with anti-HMGB1 antibody and protein A/G plus agarose at 4°C, blotted with anti-RAGE antibody; lysis buffer 140 mM NaCl, 1 mM EDTA, 10% glycerol, 1% NP40, 20 mM Tris-HCl pH 7.5
Details: remark: other sources report otherwise

binding: binds
B1: receptor for advanced glycation end products, Q63495 23-402 (receptor)
chain: GQNITARIGEPLMLSCKGAPKKPTQKLEWKLNTGRTEAWKVLSPQGDPWDSVARILPNGSLLLPAIGIVDEGTFRCRATNRLGKEVKSNYRVRVYQIPGKPEIVNPASELTANVPNKVGTCVSEGSYPAGTLSWHLDGKPLIPDGKGTVVKEETRRHPETGLFTLRSELTVTPAQGGTTPTYSCSFSLGLPRRRPLNTAPIQPRVREPLPPEGIQLLVEPEGGTVAPGGTVTLTCAISAQPPPQIHWIKDGTPLPLAPSPVLLLPEVGHEDEGIYSCVATHPSHGPQESPPVNIRVTETGDEGQAAGSVDGSGLGTLALALGILGGLGIAALLIGAILWRKRQPRLEERKAPESQEDEEERAELNQSEEAEMPENGAGGP
